In PMC7988011, “NAC blocks Cystatin C amyloid complex aggregation in a cell system and in skin of HCCAA patients” (Nature Communications, 2021):
No constants are given. Whether binding was seen depends on the method and setting. Some entries that bind do so weakly or less than the wild type.

Legend:
[1] = target: L68Q variant of human cystatin C (human) (UniProt P01034); assay: SDS-PAGE with Western blot after reduction with DTT; mutant lysates or supernatants treated with DTT (50 mM final concentration in reduced samples); blotted with anti-cystatin C
[2] = target: L68Q variant of human cystatin C (human) (UniProt P01034); assay: condition: only with 10 mM GSH or NAC in the culture medium; non-reducing SDS-PAGE with Western blot; supernatants of cells cultured with 10 mM GSH or NAC, sampled at 24 and 48 h
[3] = target: L68Q variant of human cystatin C (human) (UniProt P01034); assay: non-reducing SDS-PAGE with Western blot; lysates (1% NP-40 buffer) and supernatants of stable HEK-293T cells; 2% SDS sample buffer without reducing agent, not heated; NuPAGE 4-12% Bis-Tris; blotted with anti-cystatin C MAB1196
[4] = target: L68Q variant of human cystatin C (human) (UniProt P01034); assay: sucrose gradient ultracentrifugation; L68Q-hCC cell lysates on 5-30% sucrose step gradients, 16 h, 4 °C, 246,000×g; fractions TCA-precipitated and blotted for cystatin C; untreated, or treated with 10 mM NAC or 5% β-mercaptoethanol

binding [1]: no binding (condition: with DTT) | binding [2]: no binding | binding [3]: binds | binding [4]: binds
B1: L68Q variant of human cystatin C (natural protein, UniProt P01034 27-146, looked up)
chain: SSPGKPPRLVGGPMDASVEEEGVRRALDFAVGEYNKASNDMYHSRALQVVRARKQIVAGVNYFLDVEQGRTTCTKTQPNLDNCPFHDQPHLKRKAFCSFQIYAVPWQGTMTLSKSTCQDA
notes: Vector pBABE-CMV-Puro; also called L68Q-hCC; hCC L68Q
